TcHisRS: 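Enzyme assay of histidyl-tRNA synthetase; the read-out is not stated. Target: Histidine-tRNA ligase, Trypanosoma cruzi CL Brener (UniProt Q4DA54). Compounds at 30 µM. The record gives no direction; compounds that gave an IC50 in retests scored well above the rest, so higher reads as stronger inhibition. Of about 69,000 compounds tested this way, about 31 (0.045%) reached 50% or more in at least one test.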
LiHisRS: 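Enzyme assay of histidyl-tRNA synthetase; the read-out is not stated. Target: Histidine-tRNA ligase, Leishmania infantum (UniProt A4I591). Tested at 30 µM. The record gives no direction; compounds that gave an IC50 in retests scored well above the rest, so higher reads as stronger inhibition. The assay is labelled LdHisRS but filed under L. infantum. Of about 69,000 compounds tested this way, about 410 (0.6%) reached 50% or more in at least one test.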
PfKRS1: 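Enzyme assay of the cytosolic lysyl-tRNA synthetase in 384-well plates, read by luminescence. Target: Lysine-tRNA ligase, Plasmodium falciparum 3D7 (UniProt Q8IDJ8). Compounds at 30 µM. Higher reads as stronger inhibition, judged from the few compounds that gave an IC50. Size under these conditions: about 69,000 compounds, about 49 of them at 50% or above in at least one test.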

By UniProt entry, the sequences of proteins in these tests, tags left out. Residues count along the entry.
UniProt Q4DA54, 1-478: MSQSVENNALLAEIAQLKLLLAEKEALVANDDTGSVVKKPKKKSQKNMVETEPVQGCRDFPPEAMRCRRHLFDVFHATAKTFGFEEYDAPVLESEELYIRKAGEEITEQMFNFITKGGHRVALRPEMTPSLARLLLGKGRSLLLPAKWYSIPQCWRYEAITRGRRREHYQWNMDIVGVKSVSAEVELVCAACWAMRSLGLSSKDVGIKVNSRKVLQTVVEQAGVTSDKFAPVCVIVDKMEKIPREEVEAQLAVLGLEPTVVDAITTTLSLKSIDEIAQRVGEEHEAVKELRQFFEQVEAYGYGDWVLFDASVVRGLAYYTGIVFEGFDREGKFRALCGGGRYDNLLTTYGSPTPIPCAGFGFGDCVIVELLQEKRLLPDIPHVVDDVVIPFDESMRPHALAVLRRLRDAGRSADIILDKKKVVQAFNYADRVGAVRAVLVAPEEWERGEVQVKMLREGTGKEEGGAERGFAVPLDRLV
UniProt A4I591, 1-473: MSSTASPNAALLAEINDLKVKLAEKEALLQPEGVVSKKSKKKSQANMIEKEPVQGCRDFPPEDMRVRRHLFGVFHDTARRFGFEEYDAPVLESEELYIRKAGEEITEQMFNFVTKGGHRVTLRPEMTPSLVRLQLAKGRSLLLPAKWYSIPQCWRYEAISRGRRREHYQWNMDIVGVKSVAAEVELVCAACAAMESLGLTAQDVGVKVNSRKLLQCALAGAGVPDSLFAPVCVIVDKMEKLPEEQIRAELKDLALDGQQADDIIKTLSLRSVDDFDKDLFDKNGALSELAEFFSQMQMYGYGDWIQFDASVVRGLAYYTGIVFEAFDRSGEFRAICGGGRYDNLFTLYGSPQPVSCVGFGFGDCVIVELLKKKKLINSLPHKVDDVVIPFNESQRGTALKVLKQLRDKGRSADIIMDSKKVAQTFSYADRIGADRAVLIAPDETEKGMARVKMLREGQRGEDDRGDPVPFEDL
UniProt Q8IDJ8, 1-583: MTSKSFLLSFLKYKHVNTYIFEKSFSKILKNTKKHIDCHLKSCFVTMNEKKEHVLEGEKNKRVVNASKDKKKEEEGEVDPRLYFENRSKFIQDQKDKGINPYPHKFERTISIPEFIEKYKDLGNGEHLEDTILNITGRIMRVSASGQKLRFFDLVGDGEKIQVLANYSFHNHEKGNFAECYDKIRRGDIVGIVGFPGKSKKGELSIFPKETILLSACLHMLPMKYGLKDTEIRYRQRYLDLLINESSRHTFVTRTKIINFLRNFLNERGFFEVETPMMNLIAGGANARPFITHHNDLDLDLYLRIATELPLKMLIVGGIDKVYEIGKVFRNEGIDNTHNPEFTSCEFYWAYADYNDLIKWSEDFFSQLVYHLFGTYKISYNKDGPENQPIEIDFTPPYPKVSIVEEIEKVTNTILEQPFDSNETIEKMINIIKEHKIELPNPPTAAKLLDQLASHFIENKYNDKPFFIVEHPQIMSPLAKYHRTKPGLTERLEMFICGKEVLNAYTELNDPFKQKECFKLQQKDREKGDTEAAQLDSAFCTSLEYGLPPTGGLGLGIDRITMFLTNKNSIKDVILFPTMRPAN

Each number is a percent effect as filed. The record does not define 0% and 100%; most values in the screen are far below 50% and negative numbers occur (in some assays of this library far below -100). The compounds are a random part of those screened.

{"compound": "CN(Cc1cccs1)C1CCC[C@@H]2CN(C(N)=O)C[C@H]12", "stereo": "stereo not given in full", "TcHisRS": 1.266, "LiHisRS": 5.172, "PfKRS1": -0.3256}
{"compound": "CCn1cc(CN2CCCN(C3Cc4ccccc4C3)CC2)c(C)n1", "TcHisRS": 15.02, "LiHisRS": 21.31, "PfKRS1": 0.74}
{"compound": "Cc1nc(NCc2ccc(F)cc2)cc(C(=O)N2CCOCC2)n1", "TcHisRS": 1.754, "LiHisRS": 19.47, "PfKRS1": 7.409}
{"compound": "CC(C)(C)Oc1ccc(C(=O)N2CCOCC2c2ncon2)cc1", "stereo": "stereo not given", "TcHisRS": 0, "LiHisRS": 0, "PfKRS1": 2.795}
{"compound": "COC(=O)c1ccc(C(=O)NCC(O)c2cccn2C)cc1", "stereo": "stereo not given", "TcHisRS": 10.1, "LiHisRS": 21.95, "PfKRS1": -6.002}
{"compound": "CCN1CCN(C(=O)COCc2cccc(OC)c2)CC1", "TcHisRS": 5.325, "LiHisRS": 17.86, "PfKRS1": 1.759}
{"compound": "CN(C)c1cc(CNCc2cccc3c2OCCO3)ccn1", "TcHisRS": 7.407, "LiHisRS": 12.12, "PfKRS1": 1.154}
{"compound": "CCc1ccc(NC(=O)N2C[C@H]3C[C@H](C(=O)N4CCCC4)[C@@H](C2)O3)cc1", "TcHisRS": -0.5587, "LiHisRS": 3.846, "PfKRS1": 0.8576}
{"compound": "CCCC(N)CNS(=O)(=O)Cc1cccc(C#N)c1", "stereo": "stereo not given", "TcHisRS": 2.041, "LiHisRS": 9.917, "PfKRS1": 3.104}
{"compound": "CCCn1c(C)c(CC(=O)NCC(C)O)c2c1CC(C)(C)CC2=O", "stereo": "stereo not given", "TcHisRS": 4.036, "LiHisRS": 12.94, "PfKRS1": 9.55}
{"compound": "FC(F)Oc1ccccc1CNCc1cc(Br)c2c(c1)OCO2", "TcHisRS": 2.674, "LiHisRS": 8.901, "PfKRS1": 1.662}
{"compound": "CC(C)(C)c1n[nH]cc1CNCC1CCN(C2CC2)C1", "stereo": "stereo not given", "TcHisRS": 1.961, "LiHisRS": 8.333, "PfKRS1": 1.099}
{"compound": "COCCN1C[C@@H](C)[C@@]2(COCCN(C(=O)Cc3ccccc3)C2)C1", "TcHisRS": -2.703, "LiHisRS": 9.434, "PfKRS1": 1.756}
{"compound": "CN(C(=O)Cn1nc(-c2ccccc2Cl)ccc1=O)C1CCS(=O)(=O)C1", "stereo": "stereo not given", "TcHisRS": -1.754, "LiHisRS": -2.632, "PfKRS1": 4.437}
{"compound": "COc1cc(-c2nc(C3CC3)nn2-c2ccnc(C)c2)nc(OC)n1", "TcHisRS": 2.762, "LiHisRS": 10.42, "PfKRS1": 0.7415}
{"compound": "CC(C)(C)c1cc(NC(=O)CNC2CCc3ncnn3C2)on1", "stereo": "stereo not given", "TcHisRS": 0.5181, "LiHisRS": 1.124, "PfKRS1": 3.183}
{"compound": "Cn1c(C2CC2)nc2c1CCN(Cc1nc(-c3ccsc3)no1)C2", "TcHisRS": 7.018, "LiHisRS": 5.455, "PfKRS1": -0.8831}
{"compound": "CC(C)(C)c1cc(C(=O)N2CCOC(c3cnccn3)C2)[nH]n1", "stereo": "stereo not given", "TcHisRS": 8.046, "LiHisRS": 12.95, "PfKRS1": 1.424}
{"compound": "COC(=O)C(NC(=O)Nc1ccc(C(C)=O)cc1)C(C)C", "stereo": "stereo not given", "TcHisRS": 6, "LiHisRS": 17.39, "PfKRS1": 0.9929}
{"compound": "CCc1cnc(NCc2nc(COC)no2)nc1", "TcHisRS": 4.433, "LiHisRS": 30.26, "PfKRS1": 7.582}
{"compound": "CC(C)COC[C@@H]1CC[C@H]2[C@H](CCN2C(=O)c2ccncc2F)O1", "TcHisRS": -2.804, "LiHisRS": 6.944, "PfKRS1": 0.2778}
{"compound": "Cc1ccc(-c2ccnc(N3CCC4(CC3)CNC(=O)O4)n2)c(C)n1", "TcHisRS": 4.762, "LiHisRS": 17.78, "PfKRS1": 4.916}
{"compound": "CCC[C@H]1CN(C(=O)Cn2ccccc2=O)C[C@@H]1NS(C)(=O)=O", "TcHisRS": 3.867, "LiHisRS": 25, "PfKRS1": -3.287}
{"compound": "Cc1noc(CCCC(=O)N(CC2CCOC2)C2CC2)n1", "stereo": "stereo not given", "TcHisRS": 1.587, "LiHisRS": 8.219, "PfKRS1": 2.947}
{"compound": "O=C(CCNC(=O)C1=Cc2ccccc2OC1)Nc1cccnc1", "TcHisRS": 6.863, "LiHisRS": 13.33, "PfKRS1": 6.761}
{"compound": "O=C(CCNc1ncccn1)N1CCCC(n2ccnc2)C1", "stereo": "stereo not given", "TcHisRS": 1.88, "LiHisRS": 16.22, "PfKRS1": 2.879}
{"compound": "O=C(NC1CCN(c2ncccn2)CC1)c1cc2c(cc1O)CCCC2", "TcHisRS": 14.71, "LiHisRS": 15, "PfKRS1": 1.074}
{"compound": "C[C@@H]1CN(C(=O)c2ccccc2F)C[C@]12CCN(CCN(C)C)C2=O", "TcHisRS": -34.13, "LiHisRS": 11.93, "PfKRS1": 5.458}
{"compound": "O=C(NCCc1nnc2n1CCC2)NCC1(c2ccccc2)CC1", "TcHisRS": 2, "LiHisRS": 8.219, "PfKRS1": 2.113}
{"compound": "O=C1CCC2(CCCN(Cc3nccs3)C2)N1CC1CC1", "stereo": "stereo not given", "TcHisRS": 4.082, "LiHisRS": 23, "PfKRS1": -0.05484}
{"compound": "Cc1cc(C(=O)NCc2c(C)nn(C)c2C)nc(N2CCCC2)n1", "TcHisRS": 2.632, "LiHisRS": 17.86, "PfKRS1": 3.667}
{"compound": "CC(C)NC(=O)Cn1cc(-c2ccccc2)cn1", "TcHisRS": 3.383, "LiHisRS": 16.22, "PfKRS1": -0.2662}
{"compound": "CCN(Cc1ccc2c(c1)OCCO2)S(=O)(=O)N(C)C(C)C", "TcHisRS": -6.107, "LiHisRS": 16.44, "PfKRS1": 5.994}
{"compound": "Cc1ccc(S(=O)(=O)N2CC[C@@H](O)C2)c(F)c1", "TcHisRS": 2.564, "LiHisRS": 11.11, "PfKRS1": 6.429}
{"compound": "CCc1nc(N2CCCC(CCCOC)(C(=O)O)C2)ncc1C", "stereo": "stereo not given", "TcHisRS": 3.247, "LiHisRS": 9.677, "PfKRS1": 1.898}
{"compound": "C[C@@H]1CN(C(=O)C2CCS(=O)(=O)CC2)CC[C@@]1(O)C1CCOCC1", "TcHisRS": 1.554, "LiHisRS": 12.9, "PfKRS1": 1.342}
{"compound": "CCc1cc(N(C)Cc2ccno2)n2nc(C)c(C)c2n1", "TcHisRS": 7.2, "LiHisRS": 14.75, "PfKRS1": 9.292}
{"compound": "COc1cc(C(C)=O)ccc1SCC(=O)Nc1ccccn1", "TcHisRS": 2.632, "LiHisRS": -5.833, "PfKRS1": 1.019}
{"compound": "CCN(CC)c1ccc(-c2nc(-c3cccc(OC)c3OC)no2)cn1", "TcHisRS": 1.245, "LiHisRS": 22.33, "PfKRS1": 1.09}

Some entries from above, unchanged:

{"compound": "CN(C)c1cc(CNCc2cccc3c2OCCO3)ccn1", "TcHisRS": 7.407, "LiHisRS": 12.12, "PfKRS1": 1.154}
{"compound": "O=C(CCNc1ncccn1)N1CCCC(n2ccnc2)C1", "stereo": "stereo not given", "TcHisRS": 1.88, "LiHisRS": 16.22, "PfKRS1": 2.879}

Measurements from “University of Dundee, Small-Polar-MMV Screening Library” (2021), ChEMBL document CHEMBL3988442.